The list shows a part of the results. Only hits are listed; about a third recur on repeated control peptides.
Assays:
Test in all cases: PRISMA enrichment of interactor (LFQ) in peptide spot vs all other peptide spots (log2 fold change); higher = stronger / more specific binding of the interactor to the peptide
CCT5, P48643 = molecular target: CCT5, P48643
Description: (§1)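 PRISMA: 15-aa overlapping tiles (offset 8 aa) of 60 microproteins, plus SOS1/GLUT1 control peptides, were spot-synthesized on cellulose membranes in triplicate. Membranes were incubated with benzonase-treated HEK293T lysate, and bound proteins were identified by LC-MS/MS with LFQ. Enrichment is the log2 fold change of each protein in one spot versus all other spots. Only interactors passing the significance cutoff are listed.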

Sequences of proteins named here, by UniProt entry; tags and fusion partners are left off.
CCT5, P48643, UniProt P48643, whole entry: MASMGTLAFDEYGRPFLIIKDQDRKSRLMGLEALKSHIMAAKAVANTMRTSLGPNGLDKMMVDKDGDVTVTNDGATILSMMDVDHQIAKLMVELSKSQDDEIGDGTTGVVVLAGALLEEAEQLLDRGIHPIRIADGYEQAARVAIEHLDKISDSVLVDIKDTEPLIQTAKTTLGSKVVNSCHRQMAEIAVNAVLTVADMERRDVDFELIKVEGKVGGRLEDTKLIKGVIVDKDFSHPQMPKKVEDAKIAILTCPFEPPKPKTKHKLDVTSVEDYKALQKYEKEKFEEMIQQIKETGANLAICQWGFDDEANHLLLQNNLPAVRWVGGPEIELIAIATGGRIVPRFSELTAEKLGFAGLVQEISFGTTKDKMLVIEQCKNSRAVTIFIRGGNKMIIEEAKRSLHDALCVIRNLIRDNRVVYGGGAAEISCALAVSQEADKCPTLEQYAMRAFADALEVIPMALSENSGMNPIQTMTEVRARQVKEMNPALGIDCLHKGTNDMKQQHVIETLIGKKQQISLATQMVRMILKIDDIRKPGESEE
NDUFS5, O43920, UniProt O43920, whole entry: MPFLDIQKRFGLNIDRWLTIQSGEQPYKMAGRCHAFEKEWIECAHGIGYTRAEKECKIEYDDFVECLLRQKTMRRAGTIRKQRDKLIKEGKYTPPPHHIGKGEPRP
RFC2, P35250, UniProt P35250, whole entry: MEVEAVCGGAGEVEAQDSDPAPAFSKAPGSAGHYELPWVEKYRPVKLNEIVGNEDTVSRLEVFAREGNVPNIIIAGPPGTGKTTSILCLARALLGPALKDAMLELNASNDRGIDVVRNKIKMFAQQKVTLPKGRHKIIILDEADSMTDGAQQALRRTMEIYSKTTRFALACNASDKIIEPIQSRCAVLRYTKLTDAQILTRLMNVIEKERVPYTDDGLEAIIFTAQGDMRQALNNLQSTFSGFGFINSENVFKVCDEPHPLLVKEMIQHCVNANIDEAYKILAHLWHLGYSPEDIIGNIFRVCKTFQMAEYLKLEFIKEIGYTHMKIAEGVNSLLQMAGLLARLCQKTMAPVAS
HIST1H1E, P10412, UniProt P10412, whole entry: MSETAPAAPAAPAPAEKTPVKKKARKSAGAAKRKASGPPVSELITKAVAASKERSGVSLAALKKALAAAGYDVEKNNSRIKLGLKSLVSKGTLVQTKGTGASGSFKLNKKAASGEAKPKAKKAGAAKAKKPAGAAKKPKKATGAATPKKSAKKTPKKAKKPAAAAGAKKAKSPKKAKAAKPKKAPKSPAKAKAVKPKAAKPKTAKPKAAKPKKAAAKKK
STAT3, P40763, UniProt P40763, whole entry: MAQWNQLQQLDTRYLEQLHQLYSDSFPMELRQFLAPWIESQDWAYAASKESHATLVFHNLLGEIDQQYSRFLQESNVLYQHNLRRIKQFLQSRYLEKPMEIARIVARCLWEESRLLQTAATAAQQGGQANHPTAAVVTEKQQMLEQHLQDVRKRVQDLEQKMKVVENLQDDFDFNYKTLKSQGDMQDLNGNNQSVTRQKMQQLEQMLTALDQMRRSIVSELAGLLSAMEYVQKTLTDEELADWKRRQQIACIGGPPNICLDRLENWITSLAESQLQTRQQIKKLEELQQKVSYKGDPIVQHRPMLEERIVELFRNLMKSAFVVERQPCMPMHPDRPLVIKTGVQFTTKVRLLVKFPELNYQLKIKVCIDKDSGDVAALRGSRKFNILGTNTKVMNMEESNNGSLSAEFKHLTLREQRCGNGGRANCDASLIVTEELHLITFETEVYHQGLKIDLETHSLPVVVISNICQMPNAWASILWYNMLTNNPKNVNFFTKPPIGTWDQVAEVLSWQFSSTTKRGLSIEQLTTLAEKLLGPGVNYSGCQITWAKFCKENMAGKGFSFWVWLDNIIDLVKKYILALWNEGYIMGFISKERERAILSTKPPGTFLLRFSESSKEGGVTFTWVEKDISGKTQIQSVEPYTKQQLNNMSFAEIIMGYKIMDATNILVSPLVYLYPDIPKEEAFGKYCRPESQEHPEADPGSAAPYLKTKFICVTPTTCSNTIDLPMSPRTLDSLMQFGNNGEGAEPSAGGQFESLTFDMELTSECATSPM
EIF3D, O15371, UniProt O15371, whole entry: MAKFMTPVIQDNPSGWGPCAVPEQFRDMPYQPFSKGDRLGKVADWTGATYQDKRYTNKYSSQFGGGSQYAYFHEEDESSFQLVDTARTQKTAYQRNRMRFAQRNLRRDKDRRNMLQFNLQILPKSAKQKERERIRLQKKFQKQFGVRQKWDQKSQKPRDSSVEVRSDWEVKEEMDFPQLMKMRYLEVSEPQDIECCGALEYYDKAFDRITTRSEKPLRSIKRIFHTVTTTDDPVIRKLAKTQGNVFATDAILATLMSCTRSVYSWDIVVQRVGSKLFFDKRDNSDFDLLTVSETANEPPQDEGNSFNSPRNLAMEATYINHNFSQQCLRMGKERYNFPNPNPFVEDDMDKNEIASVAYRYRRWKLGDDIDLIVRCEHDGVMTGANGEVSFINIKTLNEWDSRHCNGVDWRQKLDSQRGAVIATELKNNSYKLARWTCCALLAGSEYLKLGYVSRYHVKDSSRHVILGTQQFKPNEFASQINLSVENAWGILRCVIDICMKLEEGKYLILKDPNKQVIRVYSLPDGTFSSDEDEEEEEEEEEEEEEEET
MAGOHB, Q96A72, UniProt Q96A72, whole entry: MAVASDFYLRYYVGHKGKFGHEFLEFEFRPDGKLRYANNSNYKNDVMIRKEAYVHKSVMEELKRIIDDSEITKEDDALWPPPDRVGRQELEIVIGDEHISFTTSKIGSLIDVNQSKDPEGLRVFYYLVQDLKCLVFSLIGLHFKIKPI
MCM2, P49736, UniProt P49736, whole entry: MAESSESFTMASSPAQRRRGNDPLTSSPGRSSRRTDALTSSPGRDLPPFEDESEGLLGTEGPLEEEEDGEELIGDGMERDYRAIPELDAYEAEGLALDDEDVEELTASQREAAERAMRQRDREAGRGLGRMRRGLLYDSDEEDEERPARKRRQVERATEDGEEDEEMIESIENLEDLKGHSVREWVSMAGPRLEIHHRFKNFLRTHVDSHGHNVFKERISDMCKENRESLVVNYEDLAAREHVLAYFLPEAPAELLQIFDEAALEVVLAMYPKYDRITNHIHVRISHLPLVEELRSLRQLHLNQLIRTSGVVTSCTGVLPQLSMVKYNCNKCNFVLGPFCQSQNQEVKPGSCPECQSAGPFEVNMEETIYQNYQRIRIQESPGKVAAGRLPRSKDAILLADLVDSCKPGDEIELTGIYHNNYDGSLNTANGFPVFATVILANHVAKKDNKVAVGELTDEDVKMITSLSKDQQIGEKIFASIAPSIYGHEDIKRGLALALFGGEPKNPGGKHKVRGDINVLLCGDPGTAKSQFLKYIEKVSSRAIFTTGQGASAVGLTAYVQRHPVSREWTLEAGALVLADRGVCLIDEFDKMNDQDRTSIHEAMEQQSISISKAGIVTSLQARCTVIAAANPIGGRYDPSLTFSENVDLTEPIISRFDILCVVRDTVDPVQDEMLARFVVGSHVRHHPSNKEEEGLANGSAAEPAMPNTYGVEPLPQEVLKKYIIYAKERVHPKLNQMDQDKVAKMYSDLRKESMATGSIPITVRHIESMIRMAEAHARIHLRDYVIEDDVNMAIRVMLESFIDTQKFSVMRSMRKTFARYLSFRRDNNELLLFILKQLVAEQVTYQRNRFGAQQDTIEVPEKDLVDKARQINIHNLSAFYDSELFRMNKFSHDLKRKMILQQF
PSMD11, O00231, UniProt O00231, whole entry: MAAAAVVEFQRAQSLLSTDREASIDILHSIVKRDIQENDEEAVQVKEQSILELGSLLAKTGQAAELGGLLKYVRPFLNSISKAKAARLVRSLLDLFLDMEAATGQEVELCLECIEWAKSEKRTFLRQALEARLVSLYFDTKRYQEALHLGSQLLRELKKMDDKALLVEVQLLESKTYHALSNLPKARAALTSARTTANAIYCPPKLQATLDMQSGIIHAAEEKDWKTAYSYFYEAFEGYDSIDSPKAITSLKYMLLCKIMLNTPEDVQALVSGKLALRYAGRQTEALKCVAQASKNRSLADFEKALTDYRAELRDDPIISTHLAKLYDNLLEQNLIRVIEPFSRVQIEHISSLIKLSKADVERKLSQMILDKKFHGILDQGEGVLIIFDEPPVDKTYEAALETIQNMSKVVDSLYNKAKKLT
CASC3, O15234, UniProt O15234, whole entry: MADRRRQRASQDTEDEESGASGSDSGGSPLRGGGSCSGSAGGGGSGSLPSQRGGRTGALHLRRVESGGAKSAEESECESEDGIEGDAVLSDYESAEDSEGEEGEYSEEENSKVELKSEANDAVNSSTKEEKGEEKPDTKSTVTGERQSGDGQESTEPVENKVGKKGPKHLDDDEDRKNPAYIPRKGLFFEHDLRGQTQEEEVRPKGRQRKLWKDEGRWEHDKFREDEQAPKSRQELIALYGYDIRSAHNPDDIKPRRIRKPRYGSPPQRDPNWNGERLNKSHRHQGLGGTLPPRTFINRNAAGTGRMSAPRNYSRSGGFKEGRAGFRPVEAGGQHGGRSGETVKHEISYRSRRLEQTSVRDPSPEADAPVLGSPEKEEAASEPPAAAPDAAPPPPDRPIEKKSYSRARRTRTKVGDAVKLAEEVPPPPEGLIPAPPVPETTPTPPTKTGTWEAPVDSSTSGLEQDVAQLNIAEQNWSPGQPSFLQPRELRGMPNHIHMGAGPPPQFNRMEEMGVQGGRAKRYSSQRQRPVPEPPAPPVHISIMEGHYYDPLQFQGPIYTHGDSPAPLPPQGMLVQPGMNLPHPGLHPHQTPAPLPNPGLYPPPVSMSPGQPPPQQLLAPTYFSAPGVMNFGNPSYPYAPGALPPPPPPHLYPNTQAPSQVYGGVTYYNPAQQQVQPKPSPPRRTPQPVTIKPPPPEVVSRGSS

GALK1, P51570 = molecular target: GALK1, P51570
Description: as §1

NDUFS5, O43920 = molecular target: NDUFS5, O43920
Description: as §1

RFC2, P35250 = molecular target: RFC2, P35250
Description: as §1

RUSC1, Q9BVN2 = molecular target: RUSC1, Q9BVN2
Description: as §1

S100A9, P06702 = molecular target: S100A9, P06702
Description: as §1

SCML2, Q9UQR0 = molecular target: SCML2, Q9UQR0
Description: as §1

TDRKH, Q9Y2W6 = molecular target: TDRKH, Q9Y2W6
Description: as §1

CBX4, O00257 = molecular target: CBX4, O00257
Description: as §1

COPG2, Q9UBF2 = molecular target: COPG2, Q9UBF2
Description: as §1

DDX19A, Q9NUU7 = molecular target: DDX19A, Q9NUU7
Description: as §1

GYG1, P46976 = molecular target: GYG1, P46976
Description: as §1

HIST1H1E, P10412 = molecular target: HIST1H1E, P10412
Description: as §1

MKKS, Q9NPJ1 = molecular target: MKKS, Q9NPJ1
Description: as §1

STAT3, P40763 = molecular target: STAT3, P40763
Description: as §1

CCDC124, Q96CT7 = molecular target: CCDC124, Q96CT7
Description: as §1

CTNND1, O60716 = molecular target: CTNND1, O60716
Description: as §1

DDOST, P39656 = molecular target: DDOST, P39656
Description: as §1

DDX27, Q96GQ7 = molecular target: DDX27, Q96GQ7
Description: as §1

DNAJB6, O75190 = molecular target: DNAJB6, O75190
Description: as §1

EHD4, Q9H223 = molecular target: EHD4, Q9H223
Description: as §1

EIF3D, O15371 = molecular target: EIF3D, O15371
Description: as §1

HSPH1, Q92598 = molecular target: HSPH1, Q92598
Description: as §1

LARP1, Q6PKG0 = molecular target: LARP1, Q6PKG0
Description: as §1

MAGOHB, Q96A72 = molecular target: MAGOHB, Q96A72
Description: as §1

MCM2, P49736 = molecular target: MCM2, P49736
Description: as §1

NSA2, O95478 = molecular target: NSA2, O95478
Description: as §1

POLR2G, P62487 = molecular target: POLR2G, P62487
Description: as §1

PSMD11, O00231 = molecular target: PSMD11, O00231
Description: as §1

RRS1, Q15050 = molecular target: RRS1, Q15050
Description: as §1

STRIP1, Q5VSL9 = molecular target: STRIP1, Q5VSL9
Description: as §1

TSR1, Q2NL82 = molecular target: TSR1, Q2NL82
Description: as §1

CASC3, O15234 = molecular target: CASC3, O15234
Description: as §1

COQ8A, Q8NI60 = molecular target: COQ8A, Q8NI60
Description: as §1

MAT1A, Q00266 = molecular target: MAT1A, Q00266
Description: as §1

MED23, Q9ULK4 = molecular target: MED23, Q9ULK4
Description: as §1

NR3C1, P04150 = molecular target: NR3C1, P04150
Description: as §1

TMEM256-PLSCR3 = molecular target: TMEM256-PLSCR3
Description: as §1

TP53, P04637 = molecular target: TP53, P04637
Description: as §1

B1: SOCS4 (peptide)
chain: IQKVPRRNFLLEKMK
- PRISMA enrichment of interactor (log2) (CCT5, P48643): 6.75
- PRISMA enrichment of interactor (log2) (GALK1, P51570): 4.72
- PRISMA enrichment of interactor (log2) (NDUFS5, O43920): 8.95
- PRISMA enrichment of interactor (log2) (RFC2, P35250): 4.73
- PRISMA enrichment of interactor (log2) (RUSC1, Q9BVN2): 7.16
- PRISMA enrichment of interactor (log2) (S100A9, P06702): 6.74
- PRISMA enrichment of interactor (log2) (SCML2, Q9UQR0): 4.11
- PRISMA enrichment of interactor (log2) (TDRKH, Q9Y2W6): 4.76

B2: MKKS (peptide)
chain: FQIPKNDDIPEQDSL
- PRISMA enrichment of interactor (log2) (CBX4, O00257): 5.02
- PRISMA enrichment of interactor (log2) (COPG2, Q9UBF2): 8.55
- PRISMA enrichment of interactor (log2) (DDX19A, Q9NUU7): 6.16
- PRISMA enrichment of interactor (log2) (GYG1, P46976): 7.21
- PRISMA enrichment of interactor (log2) (HIST1H1E, P10412): 6.86
- PRISMA enrichment of interactor (log2) (MKKS, Q9NPJ1): 4.44
- PRISMA enrichment of interactor (log2) (STAT3, P40763): 4.75

B3: CTD-2366F13.1 (peptide)
chain: RLRYGGLANNLAGVF
- PRISMA enrichment of interactor (log2) (CCDC124, Q96CT7): 5.52
- PRISMA enrichment of interactor (log2) (CTNND1, O60716): 4.51
- PRISMA enrichment of interactor (log2) (DDOST, P39656): 4.68
- PRISMA enrichment of interactor (log2) (DDX27, Q96GQ7): 5.13
- PRISMA enrichment of interactor (log2) (DNAJB6, O75190): 7.5
- PRISMA enrichment of interactor (log2) (EHD4, Q9H223): 5.25
- PRISMA enrichment of interactor (log2) (EIF3D, O15371): 5.43
- PRISMA enrichment of interactor (log2) (HSPH1, Q92598): 5.11
- PRISMA enrichment of interactor (log2) (LARP1, Q6PKG0): 5.55
- PRISMA enrichment of interactor (log2) (MAGOHB, Q96A72): 4.19
- PRISMA enrichment of interactor (log2) (MCM2, P49736): 5.68
- PRISMA enrichment of interactor (log2) (NSA2, O95478): 4.74
- PRISMA enrichment of interactor (log2) (POLR2G, P62487): 4.86
- PRISMA enrichment of interactor (log2) (PSMD11, O00231): 5.61
- PRISMA enrichment of interactor (log2) (RRS1, Q15050): 5.23
- PRISMA enrichment of interactor (log2) (STRIP1, Q5VSL9): 5.62
- PRISMA enrichment of interactor (log2) (TSR1, Q2NL82): 6.16

B4: CTD-2366F13.1 (peptide)
chain: KQSVWKWRNGLPCMS
- PRISMA enrichment of interactor (log2) (CASC3, O15234): 4.28
- PRISMA enrichment of interactor (log2) (COQ8A, Q8NI60): 4.93
- PRISMA enrichment of interactor (log2) (MAT1A, Q00266): 4.14
- PRISMA enrichment of interactor (log2) (MED23, Q9ULK4): 6
- PRISMA enrichment of interactor (log2) (NR3C1, P04150): 4.73
- PRISMA enrichment of interactor (log2) (TMEM256-PLSCR3): 4.44
- PRISMA enrichment of interactor (log2) (TP53, P04637): 4.38
